Measured values published in publication doi:10.1101/2022.03.17.484815.
No constants are given. Whether binding was seen depends on the method and setting. In cells and extracts the contact can be indirect. Tags and fused reporters may be left off the sequences shown.

What was measured:
VOZ1-C-YFP (Arabidopsis) = molecular target: T1, VOZ1-C-YFP (Arabidopsis) (UniProt Q9SGQ0); test: split reporter
T1 sequence: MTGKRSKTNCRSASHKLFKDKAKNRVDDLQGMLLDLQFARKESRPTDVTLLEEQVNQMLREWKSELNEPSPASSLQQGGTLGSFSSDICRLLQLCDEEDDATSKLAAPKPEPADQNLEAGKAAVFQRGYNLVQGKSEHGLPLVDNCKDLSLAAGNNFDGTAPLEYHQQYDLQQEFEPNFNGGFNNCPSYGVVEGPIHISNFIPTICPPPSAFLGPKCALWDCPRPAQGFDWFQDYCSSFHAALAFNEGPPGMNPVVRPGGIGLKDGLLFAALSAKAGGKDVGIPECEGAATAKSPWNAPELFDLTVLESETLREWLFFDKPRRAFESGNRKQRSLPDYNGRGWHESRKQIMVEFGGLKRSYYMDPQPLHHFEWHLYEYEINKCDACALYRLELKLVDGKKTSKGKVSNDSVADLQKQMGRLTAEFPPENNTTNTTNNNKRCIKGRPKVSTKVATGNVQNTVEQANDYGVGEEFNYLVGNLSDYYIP

VOZ2-C-YFP (Arabidopsis) = molecular target: T2, VOZ2-C-YFP (Arabidopsis) (UniProt Q9SLB9); test: split reporter
T2 sequence: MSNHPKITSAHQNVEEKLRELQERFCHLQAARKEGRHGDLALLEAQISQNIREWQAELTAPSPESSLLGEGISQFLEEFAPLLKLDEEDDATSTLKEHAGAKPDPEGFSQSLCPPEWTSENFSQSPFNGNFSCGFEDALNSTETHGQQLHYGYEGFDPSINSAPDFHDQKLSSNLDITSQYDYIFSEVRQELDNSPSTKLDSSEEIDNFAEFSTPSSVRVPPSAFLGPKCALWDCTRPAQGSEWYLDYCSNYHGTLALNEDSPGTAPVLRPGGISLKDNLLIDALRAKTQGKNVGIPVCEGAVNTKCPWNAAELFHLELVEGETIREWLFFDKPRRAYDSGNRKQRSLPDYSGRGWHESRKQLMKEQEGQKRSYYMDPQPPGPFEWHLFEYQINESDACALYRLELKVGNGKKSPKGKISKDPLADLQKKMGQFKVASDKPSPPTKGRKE

With “Vacuoleless Gametophytes (VLG) fused to a YFP fragment for BiFC (Arabidopsis)” the binding (VOZ1-C-YFP (Arabidopsis)) was “no binding” and the binding (VOZ2-C-YFP (Arabidopsis)) was “no binding”.
